Results are given in words; binding and its absence hold for the method and conditions named. Binding seen in cells or lysates may run through a third protein. A result given as binding can be weak or reduced; the word gives no strength. Sequences can lack the tags named with a protein.
Target: T1, MED18 fused to the C-terminal YFP fragment (MED18-Yc) (Arabidopsis) (UniProt Q9SJZ6)
T1 sequence: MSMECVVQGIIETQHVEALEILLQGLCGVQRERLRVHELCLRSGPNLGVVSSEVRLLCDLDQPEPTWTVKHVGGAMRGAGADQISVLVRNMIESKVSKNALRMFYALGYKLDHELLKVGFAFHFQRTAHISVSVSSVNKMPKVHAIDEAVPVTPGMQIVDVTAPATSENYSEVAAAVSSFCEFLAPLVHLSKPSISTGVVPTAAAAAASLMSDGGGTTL
Test: split reporter; BiFC with split YFP (pFGC-N-YFP, pFGC-C-YFP) in Agrobacterium-infiltrated N. benthamiana leaves, examined 48 h after infiltration by confocal microscopy

| binding | Substance |
| --- | --- |
| binds | C-terminal half of NRPD2a fused to the N-terminal YFP fragment (NRPD2aCTD-Yn) (Arabidopsis) (domain or fragment) |
| no binding | N-terminal half of NRPD2a fused to the N-terminal YFP fragment (NRPD2aNTD-Yn) (Arabidopsis) (domain or fragment) |

From article PMC8527527
